Construct, isoform or probe ends are uncertain for at least one entry. Where cells or extracts were used, other partners may take part. For part of these data: No signal at the amounts used counts as a negative. For part of these data: A weaker result is weaker than the reference pair of the same experiment.
Tests used:
Experiment in all cases: pull-down
[1] = molecular target: U1 snRNP (U1-70K detected) (UniProt P08621); conditions: ASO 2-14-2 MOE/2'-F/MOE, PS throughout, 5mC at position 2; greatly reduced U1 snRNP; 150 mM KCl washes; protein in an extract; protein details: nuclear extract; label: 3'-biotin on RNA
hnRNP A1 = hnRNP A1 (UniProt P09651); conditions: protein in an extract, protein details: nuclear extract
hnRNP A2 = conditions: protein in an extract, protein details: nuclear extract
[2] = molecular target: Interleukin enhancer-binding factor 3 (ILF3) (UniProt Q12906); conditions: PS throughout, 300 mM KCl washes, protein in an extract, protein details: nuclear extract, label: RNA strand bead-bound, only the site is given
Nucleophosmin (NPM) = Nucleophosmin (NPM) (UniProt P06748); conditions: PS throughout, protein in an extract, protein details: nuclear extract, label: RNA strand bead-bound
RNA Helicase A (RHA) = RNA Helicase A (RHA) (UniProt Q08211); conditions: PS throughout, protein in an extract, protein details: nuclear extract, label: RNA strand bead-bound
[3] = ASO strand uniform 2'-MOE, PS throughout, 5mC at all C, absent or reduced with MOE ASO, label: 3'-biotin on RNA, variant of SMN2 intron 7 RNA 23-mer
[4] = ASO strand 2'-MOE at two terminal nucleosides each end, 2'-F at 14 central, PS throughout, 5mC at position 2, absent or reduced with 2'-F ASO, label: 3'-biotin on RNA, variant of SMN2 intron 7 RNA 23-mer
[5] = nuclear extract, 30 C 40 min, 150 mM KCl washes, western blot, label: 3'-biotin
[6] = ASO uniform 2'-MOE, 5mC at all C, western, 300 mM KCl washes, only the site is given
[7] = ASO 2-14-2 MOE/2'-F/MOE, 5mC at position 2, LC-MS and western, 300 mM KCl washes, may be indirect, only the site is given

The chains behind the UniProt entries cited, without tags or fusion partners. Where a name states a change or a piece, a line headed by the entry shows the natural chain unless it says otherwise. Residues count along the entry.
UniProt P08621, 2-437: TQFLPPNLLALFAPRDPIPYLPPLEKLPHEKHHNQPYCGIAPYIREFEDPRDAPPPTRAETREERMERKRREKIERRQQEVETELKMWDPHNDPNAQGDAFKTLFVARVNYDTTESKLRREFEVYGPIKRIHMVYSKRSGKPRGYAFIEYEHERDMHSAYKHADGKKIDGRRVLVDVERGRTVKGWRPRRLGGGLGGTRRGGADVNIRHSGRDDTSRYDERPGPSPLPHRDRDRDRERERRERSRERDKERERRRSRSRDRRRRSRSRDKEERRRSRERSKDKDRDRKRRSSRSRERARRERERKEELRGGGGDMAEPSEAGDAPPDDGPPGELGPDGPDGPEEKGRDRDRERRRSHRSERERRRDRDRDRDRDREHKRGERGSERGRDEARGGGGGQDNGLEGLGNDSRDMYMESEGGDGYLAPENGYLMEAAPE
UniProt P09651: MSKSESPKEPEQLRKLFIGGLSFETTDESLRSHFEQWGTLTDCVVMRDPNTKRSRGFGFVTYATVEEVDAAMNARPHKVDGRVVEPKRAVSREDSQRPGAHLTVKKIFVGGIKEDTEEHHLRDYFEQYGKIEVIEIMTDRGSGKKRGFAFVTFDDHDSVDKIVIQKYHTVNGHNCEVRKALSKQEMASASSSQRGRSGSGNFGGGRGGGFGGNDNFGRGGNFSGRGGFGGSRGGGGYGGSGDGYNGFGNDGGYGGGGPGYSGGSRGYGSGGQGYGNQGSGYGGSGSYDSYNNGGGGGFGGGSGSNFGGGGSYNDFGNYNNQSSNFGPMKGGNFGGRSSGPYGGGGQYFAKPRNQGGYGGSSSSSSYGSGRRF
UniProt P06748, whole entry: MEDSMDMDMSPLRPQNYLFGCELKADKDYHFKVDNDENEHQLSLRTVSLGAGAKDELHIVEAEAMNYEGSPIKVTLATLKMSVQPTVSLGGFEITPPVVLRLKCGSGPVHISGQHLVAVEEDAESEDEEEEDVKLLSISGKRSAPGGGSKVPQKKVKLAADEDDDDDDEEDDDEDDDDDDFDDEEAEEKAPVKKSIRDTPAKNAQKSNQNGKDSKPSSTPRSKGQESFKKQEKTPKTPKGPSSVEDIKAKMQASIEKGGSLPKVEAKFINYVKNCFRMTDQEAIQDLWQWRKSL
UniProt Q08211, whole entry: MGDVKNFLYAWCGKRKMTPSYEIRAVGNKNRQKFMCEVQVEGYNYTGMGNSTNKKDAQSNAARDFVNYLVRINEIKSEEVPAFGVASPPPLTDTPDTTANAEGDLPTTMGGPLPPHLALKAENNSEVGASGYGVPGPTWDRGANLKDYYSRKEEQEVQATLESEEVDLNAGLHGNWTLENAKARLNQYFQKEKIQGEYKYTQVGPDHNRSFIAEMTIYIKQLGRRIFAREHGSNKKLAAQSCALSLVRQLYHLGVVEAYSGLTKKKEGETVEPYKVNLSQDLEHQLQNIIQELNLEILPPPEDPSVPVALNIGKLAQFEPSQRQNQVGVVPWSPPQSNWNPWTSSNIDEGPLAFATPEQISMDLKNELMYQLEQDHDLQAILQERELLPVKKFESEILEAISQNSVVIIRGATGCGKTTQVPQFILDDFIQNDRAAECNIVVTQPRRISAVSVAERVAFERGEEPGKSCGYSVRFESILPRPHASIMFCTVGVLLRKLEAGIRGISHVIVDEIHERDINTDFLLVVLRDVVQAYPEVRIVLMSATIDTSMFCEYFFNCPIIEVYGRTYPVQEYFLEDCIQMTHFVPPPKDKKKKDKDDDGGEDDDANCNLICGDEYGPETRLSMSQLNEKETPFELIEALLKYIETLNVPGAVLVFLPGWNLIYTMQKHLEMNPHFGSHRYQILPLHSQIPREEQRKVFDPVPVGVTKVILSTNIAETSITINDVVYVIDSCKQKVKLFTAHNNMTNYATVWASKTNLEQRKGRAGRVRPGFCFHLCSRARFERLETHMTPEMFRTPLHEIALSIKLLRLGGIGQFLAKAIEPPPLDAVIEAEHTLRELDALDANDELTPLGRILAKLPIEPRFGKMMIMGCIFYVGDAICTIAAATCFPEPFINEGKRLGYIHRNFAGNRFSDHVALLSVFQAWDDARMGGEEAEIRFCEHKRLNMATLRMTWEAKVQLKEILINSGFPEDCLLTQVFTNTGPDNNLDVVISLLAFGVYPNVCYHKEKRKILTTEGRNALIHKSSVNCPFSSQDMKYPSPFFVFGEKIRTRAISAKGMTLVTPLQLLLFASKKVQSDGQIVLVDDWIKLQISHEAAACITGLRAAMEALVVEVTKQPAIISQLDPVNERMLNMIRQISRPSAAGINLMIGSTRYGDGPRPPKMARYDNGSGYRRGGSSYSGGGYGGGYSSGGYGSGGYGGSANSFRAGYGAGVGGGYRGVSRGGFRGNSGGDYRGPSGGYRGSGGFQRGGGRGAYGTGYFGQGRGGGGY

AAGAGUAAGUCUGCCAGCAUUAUGAAAGUGAAU / TCACUUUCAUAAUGCUGG [SMN2 5' splice site RNA + ISIS 413147]
binding result [1]: binds more weakly

CUGCCAGCAUUAUGAAAGUGAAU / TCACTTTCATAATGCTGG [SMN2 intron 7 RNA + ISIS 396443]
binding result (hnRNP A1; [3]): binds more weakly
binding result (hnRNP A2; [3]): binds more weakly

CUGCCAGCAUUAUGAAAGUGAAU / TCACUUUCAUAAUGCUGG [SMN2 intron 7 RNA + ISIS 413147]
binding result (hnRNP A1; [4]): binds more weakly
binding result (hnRNP A2; [4]): binds more weakly

CUGCCAGCAUUAUGAAAGUGAAU [SMN2 intron 7 RNA 23-mer]
binding result (hnRNP A1; [5]): binds
binding result (hnRNP A2; [5]): binds

TCACTTTCATAATGCTGG [ISIS 396443/25-nt target RNA duplex]
binding result ([2]; ASO uniform 2'-MOE, 5mC at all C, western): no binding
binding result (Nucleophosmin (NPM); [6]): no binding
binding result (RNA Helicase A (RHA); [6]): no binding

TCACUUUCAUAAUGCUGG [ISIS 413147/25-nt target RNA duplex]
binding result ([2]; ASO 2-14-2 MOE/2'-F/MOE, 5mC at position 2, LC-MS and western, may be indirect): binds
binding result (Nucleophosmin (NPM); [7]): binds
binding result (RNA Helicase A (RHA); [7]): binds

UCACTTUCAUAAUGCUGG [ISIS 439419/target RNA duplex]
binding result (Nucleophosmin (NPM); ASO mixed (S)-cEt (k) / 2'-MOE, 5mC at positions 2, 8 and 15, cEt/MOE ASO recruits predominantly NPM): binds

UCACUUUCAUAAUGCUGG [ISIS 449003/target RNA duplex]
binding result (RNA Helicase A (RHA); ASO uniform 2'-OMe, 2'-OMe shows enhanced selectivity for RHA): binds

Reference: patent US20130289092
